Taken from: PubChem BioAssay AID1224830 (NIAID, 2016)
The whole screen tested about 18,000 reagents; this is an unselected part. In the full data, about 2,900 (16%) were called active. 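Calls are made per well; low scores hint the gene aids the LPS response, high scores that it dampens it.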 Unmarked entries are inactive. Repeated entries: four replicate wells of each siRNA pool.

Screen: 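Genes whose knock-down alters the TNF-alpha reporter response to LPS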 (primary screen)
Cell system: human THP-1 monocytic leukaemia cells, TNF dual-luciferase reporter clone, PMA-differentiated to macrophage-like cells
Reagent: siRNA pool against human genes, 50 nM
Duration: LPS for 4 h, given about 3 days after siRNA transfection
Challenge: bacterial LPS (TLR4 ligand), 10 ng/ml
Detection: 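TNF firefly reporter luminescence divided by renilla, normalised to the plate median, then turned into a robust z-score for each replicate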
Direction: TNF reporter robust z-score: higher = stronger TNF reporter response to LPS
Active means: 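a well is active when its z-score exceeds 2.8 or falls below -1.5; control wells carry no call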

LMO2: TNF reporter robust z-score = 0.55
LMO2: TNF reporter robust z-score = -0.64
LMO2: TNF reporter robust z-score = -0.3
LMO2: TNF reporter robust z-score = 1.57
OPA1: TNF reporter robust z-score = -1.18
OPA1: TNF reporter robust z-score = -0.65
OPA1: TNF reporter robust z-score = -0.79
OPA1: TNF reporter robust z-score = -0.49
OR6N1: TNF reporter robust z-score = 0.12
OR6N1: TNF reporter robust z-score = -1.96 (active)
OR6N1: TNF reporter robust z-score = 0.1
OR6N1: TNF reporter robust z-score = 1.11
RIGI: TNF reporter robust z-score = -0.31
RIGI: TNF reporter robust z-score = -0.01
RIGI: TNF reporter robust z-score = -0.6
RIGI: TNF reporter robust z-score = -0.14
PDE10A: TNF reporter robust z-score = 0.32
PDE10A: TNF reporter robust z-score = 0.09
PDE10A: TNF reporter robust z-score = 1.07
PDE10A: TNF reporter robust z-score = -0.64
SLC19A1: TNF reporter robust z-score = -0.04
SLC19A1: TNF reporter robust z-score = 0.21
SLC19A1: TNF reporter robust z-score = 0.9
GPR12: TNF reporter robust z-score = -0.17
GPR12: TNF reporter robust z-score = -0.35
GPR12: TNF reporter robust z-score = -0.45
GPR12: TNF reporter robust z-score = 0.15
CALCRL: TNF reporter robust z-score = 2.1
CALCRL: TNF reporter robust z-score = 1.16
CALCRL: TNF reporter robust z-score = 0.46
CALCRL: TNF reporter robust z-score = 3.73 (active)
MTRF1L: TNF reporter robust z-score = -0.25
MTRF1L: TNF reporter robust z-score = -0.14
MTRF1L: TNF reporter robust z-score = -0.76
MTRF1L: TNF reporter robust z-score = -0.65
C19orf53: TNF reporter robust z-score = 1.56
C19orf53: TNF reporter robust z-score = 3.04 (active)
C19orf53: TNF reporter robust z-score = 3.22 (active)
C19orf53: TNF reporter robust z-score = 2.62
DCAF8: TNF reporter robust z-score = 0.42
DCAF8: TNF reporter robust z-score = 0.17
DCAF8: TNF reporter robust z-score = 1.1
DCAF8: TNF reporter robust z-score = 1.03
RERGL: TNF reporter robust z-score = -0.79
RERGL: TNF reporter robust z-score = -1.13
RERGL: TNF reporter robust z-score = -1.22
RERGL: TNF reporter robust z-score = -0.48

Not a retest: entries from further up.
GPR12: TNF reporter robust z-score = -0.17
GPR12: TNF reporter robust z-score = -0.35
